{"source": "patent EP0531080A2", "about": "“Peptide inhibitors of human papilloma virus protein binding to retinoblastoma gene protein” (MERCK & CO. INC., priority 1991, dated 1993)", "target": "T1, HPV-16 E7 protein binding to the RBG protein (Homo sapiens, UniProt P06400)", "T1 sequence (P06400 1-928)": "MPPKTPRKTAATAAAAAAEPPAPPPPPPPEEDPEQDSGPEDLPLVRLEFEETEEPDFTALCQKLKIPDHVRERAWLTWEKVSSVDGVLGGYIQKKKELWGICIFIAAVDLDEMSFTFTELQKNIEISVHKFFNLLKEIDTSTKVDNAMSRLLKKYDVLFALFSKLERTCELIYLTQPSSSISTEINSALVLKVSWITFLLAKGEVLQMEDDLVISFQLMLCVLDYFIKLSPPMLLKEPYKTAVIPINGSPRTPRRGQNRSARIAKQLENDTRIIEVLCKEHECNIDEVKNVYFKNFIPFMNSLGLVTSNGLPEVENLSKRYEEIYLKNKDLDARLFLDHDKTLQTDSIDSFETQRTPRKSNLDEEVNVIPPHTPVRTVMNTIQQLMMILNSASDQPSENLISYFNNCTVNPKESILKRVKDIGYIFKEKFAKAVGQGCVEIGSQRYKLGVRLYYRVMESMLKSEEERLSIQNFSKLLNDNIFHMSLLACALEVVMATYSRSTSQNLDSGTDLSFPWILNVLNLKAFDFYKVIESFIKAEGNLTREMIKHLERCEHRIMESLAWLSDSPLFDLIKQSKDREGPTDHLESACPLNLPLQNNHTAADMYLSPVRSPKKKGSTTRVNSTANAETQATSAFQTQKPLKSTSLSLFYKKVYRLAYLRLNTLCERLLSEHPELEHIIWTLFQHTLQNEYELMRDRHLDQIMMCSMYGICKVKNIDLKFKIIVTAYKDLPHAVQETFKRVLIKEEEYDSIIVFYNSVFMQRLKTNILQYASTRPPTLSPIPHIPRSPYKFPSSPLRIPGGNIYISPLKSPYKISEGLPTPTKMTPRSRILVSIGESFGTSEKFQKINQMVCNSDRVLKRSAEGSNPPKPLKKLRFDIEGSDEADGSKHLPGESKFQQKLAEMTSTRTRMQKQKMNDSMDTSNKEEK", "assay": "Binding inhibition assay by immune precipitation (Example 2; Hela cell lysate plus radiolabeled E7 from rabbit reticulocyte lysate)", "design": "Whole cell lysates of Hela cells were used as a source of human RBG protein; endogenous in cells; host or cells: HeLa whole cell lysate (RB); rabbit reticulocyte lysate, T7 promoter clone (E7)", "details": "concentrations up to 60 uM", "method": "Peptide A, Peptide B, and Acetyl-GRP 20-27 were assayed for their abilities to inhibit the binding of the HPV-16 E7 protein to the RBG protein. Binding inhibition assays were carried out in vitro using a modification of the procedure described by N. Dyson et al., Science 243: 934-936 1989. Whole cell lysates of Hela cells were used as a source of human RBG protein. Rabbit reticulocyte cell free lysates that permit transcription and translation of exogenously added DNAs served as a source of HPV-16 E7 protein. The HPV-16 E7 gene was added to the rabbit reticulocyte lysate as a recombinant DNA clone under the control of a T7 promoter and incubated for 60 minutes at 30°C in the presence of radiolabeled methionine to allow transcription of the HPV-16 E7 gene and translation into E7 protein that contained radiolabeled methionine. The Hela cell and rabbit reticulocyte lysates were then mixed and incubated at 4°C for 90 minutes. After further manipulations a murine antibody against the RBG protein was added and incubated at 4°C for 60 minutes. Next, a rabbit anti-mouse IgG antibody and protein A sepharose was added to the reaction mixture in order to immune precipitate the RBG protein. At the same time, the E7 protein that was bound to the RBG protein was also precipitated. […] This biochemical protocol yields a quantitative estimate of the binding of HPV-16 E7 protein to the RBG protein in vitro. […]", "note": "Part of at least one peptide drawing is inferred or uncertain, most often the ends. Where no end group is shown, it is not given here."}
{"sequence": "GPAGQAEPDRAHYNIV [Peptide B]", "values": [{"measurement": "effect on HPV-16 E7 protein binding to the RBG protein", "value": "no effect"}]}
